Source: ChEMBL document CHEMBL3988442, “University of Dundee, Small-Polar-MMV Screening Library” (2021).

Sequences of proteins named here, by UniProt entry; tags and fusion partners are left off.
UniProt E9BF75, entry or part of it: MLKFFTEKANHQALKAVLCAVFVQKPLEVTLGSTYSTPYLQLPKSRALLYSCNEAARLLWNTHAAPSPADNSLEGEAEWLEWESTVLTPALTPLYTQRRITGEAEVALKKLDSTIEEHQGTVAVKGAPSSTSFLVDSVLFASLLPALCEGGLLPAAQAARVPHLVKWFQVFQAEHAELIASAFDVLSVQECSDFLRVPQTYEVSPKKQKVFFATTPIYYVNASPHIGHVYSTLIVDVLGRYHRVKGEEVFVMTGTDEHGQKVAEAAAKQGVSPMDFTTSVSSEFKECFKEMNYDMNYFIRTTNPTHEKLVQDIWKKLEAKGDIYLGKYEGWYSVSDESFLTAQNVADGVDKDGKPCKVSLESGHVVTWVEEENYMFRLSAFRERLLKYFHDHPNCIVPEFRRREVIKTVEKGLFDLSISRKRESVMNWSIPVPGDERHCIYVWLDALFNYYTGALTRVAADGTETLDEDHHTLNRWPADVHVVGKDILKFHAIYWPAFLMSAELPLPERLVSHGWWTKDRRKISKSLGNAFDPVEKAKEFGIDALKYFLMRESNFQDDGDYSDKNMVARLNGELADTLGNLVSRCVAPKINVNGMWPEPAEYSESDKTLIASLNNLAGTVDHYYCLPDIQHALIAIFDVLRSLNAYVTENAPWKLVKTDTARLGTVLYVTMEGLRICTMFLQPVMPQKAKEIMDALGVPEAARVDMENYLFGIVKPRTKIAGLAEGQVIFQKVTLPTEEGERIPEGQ

Mtb heat-shock: 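Assay on Mycobacterium tuberculosis, filed only as a heat shock assay from Cornell; the read-out is not stated. The concentration is filed as 10 mM, unlikely as a test dose, so the dose is not known. Direction is inferred from retests: higher values go with stronger inhibition. Of about 69,000 compounds tested this way, about 930 (1.4%) reached 50% or more in at least one test.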
LdMetRS: 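Methionyl-tRNA synthetase (putative), Leishmania donovani (UniProt E9BF75). Primary screen of methionyl-tRNA synthetase; the read-out is not stated. The test concentration is not given. Values are per cent inhibition. Size under these conditions: about 68,000 compounds, about 24 of them at 50% or above in at least one test.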
Mtb growth Cornell: 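Whole-cell assay for inhibitors of Mycobacterium tuberculosis growth, labelled Cornell in the record; the read-out is not stated. The concentration is filed as 10 mM, unlikely as a test dose, so the dose is not known. Higher means stronger inhibition (inferred from two other growth screens of the library). Size under these conditions: about 53,000 compounds, about 900 of them at 50% or above in at least one test.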

All values are in %.
How 0% and 100% were set is not recorded. Most values in the screen are low, and negative values occur.
Compounds were drawn at random from those tested, without regard to their results.

With CC(C)(C)C(=O)NCCC(=O)NC(C)(C)c1ccc2c(c1)OCO2 the screen gave Mtb heat-shock: -1.334%; LdMetRS: 13.9%; Mtb growth Cornell: 11.96%. Result for CCN(CC)CCn1cc(NC(=O)CNc2ccccc2OC)cn1 was Mtb heat-shock: -47.53%; LdMetRS: 0.8065%; Mtb growth Cornell: -57.27%. With O=C(NCc1ccc(CN2CCCC2)cc1)NC1(CO)CCCC1 the screen gave Mtb heat-shock: -22.95%; LdMetRS: 7.357%; Mtb growth Cornell: -26.85%. COc1ccc(C(=O)N2C[C@@H](C(=O)O)[C@H](c3ccccc3C)C2)c(O)c1 read Mtb heat-shock: 6.869%; LdMetRS: 13.75%; Mtb growth Cornell: 34%. For Cc1ccc(S(=O)(=O)NCc2[nH]ncc2Br)cc1F the result was Mtb heat-shock: 30.42%; LdMetRS: 12.22%. For [H][C@@]12OCCN(Cc3cccc(F)c3)[C@@]1([H])CC[C@@H]2OCc1ccccn1 the result was Mtb heat-shock: -0.2481%; Mtb growth Cornell: 16.05%.

With O=C(NCCCn1cccn1)C1(c2ccccc2)CCOCC1 the screen gave Mtb heat-shock: 8.802%; LdMetRS: -9.296%. CCn1cnnc1C1CCN(C(=O)c2ccc(Cl)s2)CC1 read Mtb heat-shock: 7.638%; LdMetRS: 3.286%; Mtb growth Cornell: 38.58%. With Cc1cccnc1CN(C)C(C(=O)O)c1ccc(C(C)(C)C#N)cc1 (configuration not stated) the screen gave Mtb heat-shock: 35.15%; LdMetRS: 11.94%; Mtb growth Cornell: 37.7%. CC(=O)NCCNC(=O)c1cc(Br)c2c(c1)OCCO2 gave Mtb heat-shock: -0.4956%; LdMetRS: 16.42%; Mtb growth Cornell: -39%. With CCCOC1CCCN(C(=O)c2cc(CN(CC)CC)c(CC)o2)C1 (configuration not stated) the screen gave Mtb heat-shock: -27%; LdMetRS: 1.305%. With CC1CN(CC(=O)NCCc2ccncc2)Cc2ccccc2O1 (configuration not stated) the screen gave Mtb heat-shock: -14.47%; LdMetRS: 3.093%.

For CCOCc1ncn2c1CN(S(=O)(=O)c1ccc(C)cc1)CC2 the result was Mtb heat-shock: -26.9%; LdMetRS: 0.5376%; Mtb growth Cornell: -39.89%. O=C(O)C(F)(F)F.c1cnn(Cc2nnc3n2CCCN(CC2CCOCC2)C3)c1 gave Mtb heat-shock: -5.689%; Mtb growth Cornell: 0.3535%. COc1ccc(Br)cc1CN(C)c1nc2c(cnn2C)c(=O)[nH]1 gave Mtb heat-shock: -11.46%; LdMetRS: 17.6%; Mtb growth Cornell: -0.2122%. With O=C(NCCN1CCOC1=O)c1ccc2sccc2c1 the screen gave Mtb heat-shock: -5.634%; LdMetRS: 11.54%; Mtb growth Cornell: 4.272%. CN(C)C(CNC(=O)c1nc(N2CCOCC2)ncc1Cl)c1cccs1 (configuration not stated) gave Mtb heat-shock: 33.39%; LdMetRS: 3.873%; Mtb growth Cornell: -3.79%. For Cc1ccc(N2CCN(C(=O)CCc3ccc(O)cc3)CC2=O)cc1 the result was Mtb heat-shock: -35.73%; LdMetRS: 15.46%; Mtb growth Cornell: -13.16%.

O=C(Nc1cnccn1)[C@@H]1COC[C@H]2CN(c3ncc(F)cn3)C[C@H]21 gave LdMetRS: 18.12%. With [H][C@@]12COC[C@@H](C(=O)NC)[C@]1([H])CN(C(=O)c1cccc(OC)c1)C2 the screen gave Mtb heat-shock: -41.83%; Mtb growth Cornell: 7.872%. CN(C)C(=O)CCN1CC(c2ccccc2)(c2ccccc2)CCC1=O gave Mtb heat-shock: -8.642%; LdMetRS: 8.871%; Mtb growth Cornell: -1.045%. COCC(=O)N1CCCCC1c1ccncn1 (configuration not stated) read Mtb heat-shock: -10.06%; LdMetRS: 5.178%; Mtb growth Cornell: -40.59%. CC(C)(C)c1nc(CN2CCOC(Cn3cccn3)C2)no1 (configuration not stated) gave Mtb heat-shock: -1.578%; LdMetRS: 13.86%. With COCc1nc(C(=O)NS(=O)(=O)c2ccc(F)cc2F)cs1 the screen gave Mtb heat-shock: 12.3%; LdMetRS: 9.726%.

[H][C@@]12CS(=O)(=O)C[C@]1([H])N(Cc1ccc(OC)c(F)c1)CCN2C(=O)N(C)C read Mtb heat-shock: 1.168%. With c1cnc(C2CCCN(Cc3ccsc3)C2)cn1 (configuration not stated) the screen gave Mtb heat-shock: 4.422%; LdMetRS: 9.006%; Mtb growth Cornell: 3.607%. Result for CCC(C(=O)N(C)CCC1=CCN(C)CC1)c1ccccc1 (configuration not stated) was Mtb heat-shock: 1.614%; LdMetRS: 10.95%; Mtb growth Cornell: 3.557%. COc1cccc(CCNCc2c(C)nn(C)c2N(C)C)c1 read Mtb heat-shock: 8.423%; LdMetRS: 14.29%.

3 of the entries, repeated:

CCN(CC)CCn1cc(NC(=O)CNc2ccccc2OC)cn1 gave Mtb heat-shock: -47.53%; LdMetRS: 0.8065%; Mtb growth Cornell: -57.27%.
CC(=O)NCCNC(=O)c1cc(Br)c2c(c1)OCCO2 gave Mtb heat-shock: -0.4956%; LdMetRS: 16.42%; Mtb growth Cornell: -39%.
CCC(C(=O)N(C)CCC1=CCN(C)CC1)c1ccccc1 (configuration not stated) gave Mtb heat-shock: 1.614%; LdMetRS: 10.95%; Mtb growth Cornell: 3.557%.